“And” between values parts separate entries of the source, which are not always exact repeats. Identical values can stand only once. Like-named read-outs stand apart in the source and are kept apart here.
Experiments:
[1] = Cycling test in AORFB cell, negolyte with compound A
[2] = Electrochemical properties at diluted state (cyclic voltammetry, RDE linear sweep voltammetry); type: physicochemical; settings: cell with ferricyanide/ferrocyanide redox couple in the posolyte
Description: Cyclic voltammetry experiments were performed at a 100 mV/s scan rate for compounds A, B and B-M3CH in a solution at pH 14 (KOH 1 M).
The electrochemical experiments were conducted on an electrochemical working station (BioLogic Science Instruments VSP) at 25° C. using a three-electrodes electrochemical cell, where a Pt wire was employed at the counter electrode (CE), an Ag/AgCl/KCl saturated electrode immerged in a 1 M KOH solution protected from the cell by a porous frit glass served as the reference electrode (RE) and a rotating disc electrode (RDE) mounted with a glassy carbon (GC, 7.069 mm^2) disk was used as the working electrode (WE), respectively. The potential was reported relative to the normal hydrogen electrode (NHE), which was converted from the Ag/AgCl reference electrode (0.230 V versus NHE). The ohmic drop between the WE and RE is determined by current interrupt experiments and leads to a value close to 0.7069 Ω·cm^2. All cyclic voltammetry experiments were conducted by alleviating most of this resistance (85%) using the potentiostat manual ohmic drop compensation. […]
Each recorded cyclic voltammetry of the reduction and the oxidation process of a compound at a given scan rate is analyzed by measuring ip,a=anodic peak current; ip,c=cathodic peak current; v=scan rate; Ep,a=anodic peak potential; Ep,c=cathodic peak potential; ΔEp=Ep,a−Ep,c; the apparent standard redox potential E^0′=[…]. […]
The oxidation (DO) and the reduction (DR) diffusion coefficients were calculated using Randles-Sevcik (RS) equation ip=0.4463.n^3/2.F^3/2.A.C.v^1/2.D^1/2.R^−1/2.T^−1/2=Cte.v^1/2.D^1/2, n=number of electrons exchanged during the redox process; F=faradaic number=96485 C·mol^−1; A=electrode active surface; C=redox active molecule concentration; R=gas constant=8.314 J·K^−1·mol^−1; T=bulk temperature=299 K. The experiments are conducted by cyclic voltammetry at various scan rates ranging from 10 mV/s up to 20 V/s. […]
Peak-to-peak separation ΔEp values were determined from the third cycle of each cyclic voltammogram and are gathered in the following table 2. […]

[3] = Post-cycling analyses of the negolyte (cyclic voltammetry and 1H NMR before and after cycling); type: physicochemical; settings: negolyte before the cycling test
Description: FIG. 3: Cyclic voltammetry (3rd cycle) of the negolyte (black line) before the cycling test and (grey line) after cycling test, recorded at a scan rate of 100 mV·s^−1.
FIG. 4: ^1H NMR spectra of the negolyte, recorded in D2O between 0 and 10 ppm, (black line) before and (grey line) after the cycling test.
A preliminary electrochemical test was performed on the negolyte before and after the cycling test (FIG. 3).
Further analyses were performed using ^1H NMR spectroscopy, see FIG. 4.
A preliminary electrochemical test was performed on the negolyte before and after thousands of cycles and a few months of cycling test (FIG. 7).
Further analyses were performed using ^1H NMR spectroscopy, see FIG. 8.
A preliminary electrochemical test was performed on the negolyte before and after the cycling test (FIG. 10) which lasted for more than 1000 cycles, or 25 days of constant cycling.
Further analyses were performed using ^1H NMR spectroscopy, see FIG. 11.

[4] = Cycling test in AORFB cell, negolyte with compound B
[5] = Cycling test in AORFB cell, negolyte with compound B-M3CH
[6] = prior art CN107171012, galvanostatic mode; cited from earlier work

With Cc1c(C(=O)O)c(O)cc2c1C(=O)c1c(O)cccc1C2=O [Compound A] the energy density [1] was 3.7 Wh/L, the “nominal power density reached” value [1] was 100 mW/cm^2 and the “capacity utilization at the beginning of the cycling test” value ([1]; 0.24 M compound A, pH 13.5, 25 cm^2, 100 mL/min) was 100%. The “active surface resistance (ASR)” value ([1]; 50% SOC, 80 μm membrane) was 2.0-2.3 Ω·cm^2, the coulombic efficiencies ([1]; cycles under power static mode) was under 99% and the energy efficiencies ([1]; even at nominal power density 100 mW/cm^2) was over 70%. The “open-circuit-voltage (ocv) at 50% SOC” value [2] was “about 1.1 V”, the “max current during reduction step” value [3] was “roughly −4 mA” and the “max current during reoxidation step” value [3] was “roughly 3 mA”.
For Cc1cc(O)cc2c1C(=O)c1c(O)cccc1C2=O [Compound B, 3,8-dihydroxy-1-methylanthracene-9,10-dione], the “open-circuit-voltage (ocv) at 50% SOC” value [2] was “about 1.1 V”, the energy density [4] was 2.1 Wh/L and the “nominal current density reached” value [4] was 120 mA/cm^2. For the same compound, the “experimental capacity achieved at the beginning of the cycling test” value ([4]; 0.18 M compound B, pH 14.0, 5 cm^2, galvanostatic 40 mA/cm^2) was 78%, the “active surface resistance (ASR)” value ([4]; 50% SOC, 80 μm membrane) was 2.0-2.2 Ω·cm^2 and the average coulombic efficiencies ([4]; 500 cycles, 40 mA/cm^2) was about 99.82%. The average energy efficiencies ([4]; 500 cycles, 40 mA/cm^2) was about 81.47%, the “capacity loss per cycle” value ([4]; 500 cycles, 40 mA/cm^2) was 0.025% and −0.025% and the “available capacity after air sealing problematics” value ([4]; further operation at different current densities) was “below 40%”. The “max current during reduction step” value [3] was “roughly −4 mA” and the “max current during reoxidation step” value [3] was “roughly 2.8 mA”.
In the case of Cc1cc(OCCCC(=O)O)cc2c1C(=O)c1c(O)cccc1C2=O [Compound B-M3CH, 4-((5-hydroxy-4-methyl-9,10-dioxo-9,10-dihydroanthracen-2-yl)oxy)butanoic acid], the “open-circuit-voltage (ocv) at 50% SOC” value [2] was “about 1.0 V”, the “max current during reduction step” value [3] was “roughly −2.3 mA” and the “max current during reoxidation step” value [3] was “roughly 2.0 mA”. The energy density [5] was 2.0 Wh/L, the “nominal current density reached” value [5] was 40 mA/cm^2 and the “experimental capacity achieved at the beginning of the cycling test” value ([5]; 0.1 M compound B-M3CH, pH 13.0, 25 cm^2, power static mode 40 mW/cm^2) was 70%. The “active surface resistance (ASR)” value ([5]; 50% SOC, 50 μm membrane) was 2.0 Ω·cm^2, the average coulombic efficiencies ([5]; power static mode 40 mW/cm^2) was about 99.41% and the average energy efficiencies ([5]; power static mode 40 mW/cm^2) was about 81.17%. For the same compound, the “capacity loss per cycle” value ([5]; power static mode 40 mW/cm^2) was 0.0099% and −0.0099%.
For O=C1c2ccccc2C(=O)c2c1cc(S(=O)(=O)[O-])c(O)c2O.[Na+] [alizarin red S], the coulombic efficiency [6] is given as 98.3% and the energy density [6] is given as 1.2 Wh/L.

From US20240297323A1, “BIOBASED AQUEOUS ORGANIC-BASED ELECTROLYTE IN AQUEOUS ORGANIC REDOX FLOW BATTERY” (KEMIWATT, priority 2021, published 2024)
